Experimental data: PubChem BioAssay AID1904 (GNF, 2009)
This is not the whole library: the list holds selected reagents. 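Lists only primary-screen hits; phenotype classes come from fitted traces, and the underlying luminescence values are not given.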 Reagents against one gene are numbered here.

Aim: 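Knockdowns that alter circadian period or oscillation amplitude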 (follow-up of hits)
System: human U2OS osteosarcoma cells stably expressing a destabilised luciferase driven by the Bmal1 promoter
Reagents: siRNA pair against human genes, 12.5 nM (two siRNAs, 0.5 pmol each, per well)
Time to read-out: about 3 days after transfection, then luminescence recorded for about 4 days
Read-out: 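Period and amplitude fitted from detrended luminescence traces taken every 2 hours; duplicate wells averaged, compared with the screen mean and grouped into phenotype classes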
Rule for the call: 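Scored active if separate single siRNAs repeated the clock phenotype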
Calls: active = confirmed by single siRNAs; inactive = not confirmed

Depletion of GRPR #1 gave: clock phenotype class longer clock period; seen with two independent siRNA pairs for the gene; confirmed with single siRNAs phenotype reproduced by individual siRNAs; active.
For GRPR #2 the deposit lists clock phenotype class longer clock period; seen with two independent siRNA pairs for the gene; confirmed with single siRNAs phenotype reproduced by individual siRNAs; active.
Knock-down of FBXL3 #1 resulted in: clock phenotype class longer clock period; seen with two independent siRNA pairs for the gene; confirmed with single siRNAs phenotype reproduced by individual siRNAs; active.
FBXL3 #2 gave clock phenotype class longer clock period; seen with two independent siRNA pairs for the gene; confirmed with single siRNAs phenotype reproduced by individual siRNAs; active.
RGPR #1 gave clock phenotype class longer clock period; seen with two independent siRNA pairs for the gene; confirmed with single siRNAs phenotype reproduced by individual siRNAs; active.
For RGPR #2, the entry reads clock phenotype class longer clock period; seen with two independent siRNA pairs for the gene; confirmed with single siRNAs phenotype reproduced by individual siRNAs; active.
Knock-down of CDC2L1 #1 gave: clock phenotype class longer clock period; seen with two independent siRNA pairs for the gene; confirmed with single siRNAs phenotype reproduced by individual siRNAs; active.
CDC2L1 #2 scored clock phenotype class longer clock period; seen with two independent siRNA pairs for the gene; confirmed with single siRNAs phenotype reproduced by individual siRNAs; active.
Against TCTA #1, the values are clock phenotype class higher rhythm amplitude; seen with one siRNA pair in duplicate wells; confirmed with single siRNAs phenotype reproduced by individual siRNAs; active.
Depletion of TCTA #2 gave: clock phenotype class higher rhythm amplitude; seen with one siRNA pair in duplicate wells; confirmed with single siRNAs phenotype reproduced by individual siRNAs; active.
After knock-down of IGSF4C #1, the record shows clock phenotype class longer clock period; seen with two independent siRNA pairs for the gene; confirmed with single siRNAs phenotype reproduced by individual siRNAs; active.
With knock-down of IGSF4C #2, the screen gave clock phenotype class longer clock period; seen with two independent siRNA pairs for the gene; confirmed with single siRNAs phenotype reproduced by individual siRNAs; active.
Silencing of PAQR4 #1 gave: clock phenotype class longer clock period; seen with two independent siRNA pairs for the gene; confirmed with single siRNAs phenotype reproduced by individual siRNAs; active.
Depletion of PAQR4 #2 resulted in: clock phenotype class longer clock period; seen with two independent siRNA pairs for the gene; confirmed with single siRNAs phenotype reproduced by individual siRNAs; active.
With knock-down of OR2W1 #1 the results were clock phenotype class higher rhythm amplitude; seen with one siRNA pair in duplicate wells; confirmed with single siRNAs phenotype reproduced by individual siRNAs; active.
For OR2W1 #2, the entry reads clock phenotype class higher rhythm amplitude; seen with one siRNA pair in duplicate wells; confirmed with single siRNAs phenotype reproduced by individual siRNAs; active.
With knock-down of SLC22A8 #1 the results were clock phenotype class longer clock period; seen with two independent siRNA pairs for the gene; confirmed with single siRNAs phenotype reproduced by individual siRNAs; active.
Against SLC22A8 #2, the entry reads clock phenotype class longer clock period; seen with two independent siRNA pairs for the gene; confirmed with single siRNAs phenotype reproduced by individual siRNAs; active.
After knock-down of ASB5 #1, the screen gave clock phenotype class longer clock period; seen with two independent siRNA pairs for the gene; confirmed with single siRNAs phenotype reproduced by individual siRNAs; active.
With knock-down of ASB5 #2, the record shows clock phenotype class longer clock period; seen with two independent siRNA pairs for the gene; confirmed with single siRNAs phenotype reproduced by individual siRNAs; active.
Depletion of PPM1B #1 gave: clock phenotype class shorter clock period; seen with two independent siRNA pairs for the gene; confirmed with single siRNAs phenotype reproduced by individual siRNAs; active.
After knock-down of PPM1B #2, the screen gave clock phenotype class shorter clock period; seen with two independent siRNA pairs for the gene; confirmed with single siRNAs phenotype reproduced by individual siRNAs; active.
With knock-down of COX7B #1 the results were clock phenotype class longer clock period; seen with two independent siRNA pairs for the gene; confirmed with single siRNAs phenotype reproduced by individual siRNAs; active.
With knock-down of COX7B #2, the screen gave clock phenotype class longer clock period; seen with two independent siRNA pairs for the gene; confirmed with single siRNAs phenotype reproduced by individual siRNAs; active.
For CLCN6 #1, the values are clock phenotype class higher rhythm amplitude; seen with one siRNA pair in duplicate wells; confirmed with single siRNAs not retested with individual siRNAs.
Depletion of CLCN6 #2 resulted in: clock phenotype class higher rhythm amplitude; seen with one siRNA pair in duplicate wells; confirmed with single siRNAs not retested with individual siRNAs.
Silencing of KIAA0690 #1 came out at: clock phenotype class longer clock period; seen with two independent siRNA pairs for the gene; confirmed with single siRNAs phenotype reproduced by individual siRNAs; active.
For KIAA0690 #2, the entry reads clock phenotype class longer clock period; seen with two independent siRNA pairs for the gene; confirmed with single siRNAs phenotype reproduced by individual siRNAs; active.
Knock-down of PEG3 #1 resulted in: clock phenotype class longer clock period; seen with two independent siRNA pairs for the gene; confirmed with single siRNAs phenotype reproduced by individual siRNAs; active.
Silencing of PEG3 #2 gave: clock phenotype class longer clock period; seen with two independent siRNA pairs for the gene; confirmed with single siRNAs phenotype reproduced by individual siRNAs; active.
LPHN1 #1 showed clock phenotype class longer clock period; seen with two independent siRNA pairs for the gene; confirmed with single siRNAs phenotype reproduced by individual siRNAs; active.
Silencing of LPHN1 #2 gave: clock phenotype class longer clock period; seen with two independent siRNA pairs for the gene; confirmed with single siRNAs phenotype reproduced by individual siRNAs; active.
With knock-down of ICAM5 #1 the results were clock phenotype class longer clock period; seen with two independent siRNA pairs for the gene; confirmed with single siRNAs phenotype not reproduced by individual siRNAs; inconclusive.
For ICAM5 #2 the deposit lists clock phenotype class longer clock period; seen with two independent siRNA pairs for the gene; confirmed with single siRNAs phenotype not reproduced by individual siRNAs; inconclusive.
Knock-down of FOXL1 #1 resulted in: clock phenotype class higher rhythm amplitude; seen with one siRNA pair in duplicate wells; confirmed with single siRNAs phenotype reproduced by individual siRNAs; active.
For FOXL1 #2 the deposit lists clock phenotype class higher rhythm amplitude; seen with one siRNA pair in duplicate wells; confirmed with single siRNAs phenotype reproduced by individual siRNAs; active.
Depletion of ZNF261 resulted in: clock phenotype class longer clock period; seen with two independent siRNA pairs for the gene; confirmed with single siRNAs phenotype reproduced by individual siRNAs; active.
Knock-down of WIG1 came out at: clock phenotype class longer clock period; seen with two independent siRNA pairs for the gene; confirmed with single siRNAs phenotype reproduced by individual siRNAs; active.
Against NAGLU #1, the values are clock phenotype class longer clock period; seen with two independent siRNA pairs for the gene; confirmed with single siRNAs phenotype reproduced by individual siRNAs; active.
Against NAGLU #2, the entry reads clock phenotype class longer clock period; seen with two independent siRNA pairs for the gene; confirmed with single siRNAs phenotype reproduced by individual siRNAs; active.

Taken from above:
IGSF4C #1, confirmed with single siRNAs: phenotype reproduced by individual siRNAs
Result of NAGLU #2 under “outcome”: active
Result of FOXL1 #1 under “clock phenotype class”: higher rhythm amplitude; seen with one siRNA pair in duplicate wells
For “confirmed with single siRNAs”, CLCN6 #1 reads not retested with individual siRNAs
Result of ICAM5 #1 under “clock phenotype class”: longer clock period; seen with two independent siRNA pairs for the gene
